# Reference: PubChem BioAssay AID485314 (National Center for Advancing Translational Sciences (NCATS), 2010)
# In all, about 340,000 compounds went through this assay and about 4,500 (1.3%) were called active. The shares of active, inactive and inconclusive entries below differ from those in the screen. The call rests on the fitted dose curve; in most records, active means well fitted inhibition curve with a large enough effect; inconclusive means small, poorly fitted or top-dose-only effect, or another doubt; inactive means no such curve, though single readings can be large or run the other way. Potencies of inconclusive entries are doubtful fits and often do not repeat.
# Target: DNA polymerase beta (Homo sapiens) (UniProt P06746)
# Test: qHTS Assay for Inhibitors of DNA Polymerase Beta
# Details: Pol beta primer extension/strand displacement, fluorescence kinetic; activity change, negative = inhibition: at 114 µM (top of the series)
# How it was run: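 Curves were derived by four-parameter Hill fits of normalized qHTS data. The kinetic fluorescent primer-extension read was taken at 0 and 10 min after 50 nM substrate, following a 15 min room-temperature preincubation of 10 nM enzyme with compounds.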
# On the % scale 0 is the no-effect control and ±100 the full control effect; potency means the concentration at half of the fitted maximal effect.
SMILES,Potency,"activity change, negative = inhibition"
COc1ccccc1NC(=O)CSc1nc2sc(C)c(C)c2c(=O)n1Cc1ccco1,"inconclusive: 14.1 µM [inhibitor, partial curve]",–
O=C(Nc1ccc([N+](=O)[O-])cc1)c1ccccc1,"inconclusive: 1.26 µM [inhibitor, full curve, poor fit]",–
Cc1ccc(CNC(=O)C(C)n2c(=O)cc(-c3ccccc3)c3c(C)nn(C)c32)cc1 (stereo not drawn),–,inactive: -28.6%
CC(=O)Nc1ccc(N2C(=O)c3cccc4c(O)ccc(c34)C2=O)cc1,–,inconclusive: -117% [inhibitor]
Cc1ccc(-c2nnn3c2nc(NCc2ccc4c(c2)OCO4)c2ccccc23)cc1,–,inactive: 5.36%
O=C(CSc1nc(=O)[nH]c2c1CCC2)NCc1ccc(F)cc1,–,inactive: 0.472%
Cc1cc2c(cc1S(=O)(=O)N(C)Cc1ccccc1)OCC(=O)N2,"inconclusive: 89.1 µM [inhibitor, single point]",–
Cc1ccc(C(=O)N[C@H](C(=O)OCc2cc(=O)n3c(n2)sc2ccccc23)C(C)C)cc1,active: 14.1 µM,–
CC(C)CNC1=CC(=O)CC(c2ccco2)C1 (stereo not drawn),active: 28.2 µM,–
COc1ccc(S(=O)(=O)N2CCC(C(=O)N[C@@H](C)C(=O)NCc3ccccc3OC)CC2)cc1,–,inactive: -0.729%
COc1ccc(-n2nc(C(=O)NCC(=O)Nc3ccccn3)c3ccccc3c2=O)cc1Cl,"inconclusive: 11.2 µM [inhibitor, partial curve]",–
Cc1cc(C)c(C#N)c(SC(C(=O)NC(C)(C)C)c2ccccc2)n1 (stereo not drawn),"inconclusive: 89.1 µM [inhibitor, single point]",–
Nc1ccccc1Sc1ccc(C(=O)c2ccccc2C(=O)O)cc1[N+](=O)[O-],–,inactive: -6.81%
COc1cc(N2Cc3ccccc3C2)ccc1C=O,active: 11.2 µM,–
C=C(C)C(=O)N1CC2(CC(c3cccc(NC(=O)/C=C\C=C/C)c3)=NO2)C[C@H]1C(N)=O (stereo partly drawn),"inconclusive: 89.1 µM [inhibitor, single point]",–
O=C(O)c1ccc(N=Nc2c(O)ccc3ncccc23)cc1,active: 5.01 µM,–
ON=C1/C(=N\O)CC2(C/C1=N/O)OCCO2,"inconclusive: 39.8 µM [inhibitor, single point]",–
COc1ccc(C(=O)Oc2ccc(C(c3c(C)[nH][nH]c3=O)c3c(C)[nH][nH]c3=O)cc2OC)cc1,–,inactive: -0.197%
COCCCNC(=O)c1ccc2c(c1)ncn2-c1ccc(C)cc1C,"inconclusive: 89.1 µM [inhibitor, single point]",–
Cc1cc2ccccc2n1CCNC(=O)c1ccc(S(=O)(=O)N2CCOCC2)cc1,"inconclusive: 79.4 µM [inhibitor, single point]",–
O=S(=O)(/N=C(/Nc1ccc(Cl)c(S(=O)(=O)N2CCOCC2)c1)c1ccc(F)cc1)c1ccccc1,"inconclusive: 0.141 µM [inhibitor, full curve, poor fit]",–
COc1cc(NC(=O)c2ncn(-c3ccccc3)n2)cc(OC)c1,"inconclusive: 89.1 µM [inhibitor, single point]",–
Cc1cc(=O)n2nc(N(C)CC(=O)NCc3ccc(Cl)cc3)sc2n1,–,inactive: 9.57%

SMILES,Potency,"activity change, negative = inhibition"
Cc1ccccc1-c1nc(SCc2ccccn2)c2c(=O)n(C)c(=O)n(C)c2n1,"inconclusive: 0.141 µM [inhibitor, full curve, poor fit]",–
O=C(CCNC(=O)c1ccc([N+](=O)[O-])cc1)NCCc1ccccc1,–,inactive: -2.52%
O=C1OC(c2cccs2)=N/C1=C\c1ccc(-c2cccc(Cl)c2)o1,–,inactive: -0.287%
O=[N+]([O-])c1ccc(C=Nc2ccc(Cl)cc2Cl)s1,"inconclusive: 70.8 µM [inhibitor, single point]",–
CC1CCCCC1NC(=O)c1cc2ccccc2o1 (stereo not drawn),"inconclusive: 39.8 µM [inhibitor, full curve]",–
CN(C)Cc1c(O)ccc2c3c(c(=O)oc12)CCCCC3,–,inactive: -11.6%
NS(=O)(=O)c1ccc(CCNC(=O)CSc2ccccc2)cc1,–,inactive: -1.79%
Cc1ccc(-n2nc3c(=O)n(C(C)C(=O)NCc4ccc(Cl)cc4)nc(C)c3c2C)cc1 (stereo not drawn),"inconclusive: 89.1 µM [inhibitor, single point]",–
CCCS(=O)(=O)N1CCCC(c2nc(-c3cccc(OC)c3)no2)C1 (stereo not drawn),"inconclusive: 31.6 µM [inhibitor, partial curve, poor fit]",–
CN1c2ccsc2/C(=N/NC(=O)c2c(F)cccc2F)CS1(=O)=O,"inconclusive: 100 µM [inhibitor, partial curve, poor fit]",–
Cc1ccc(C2/C(=C(/O)c3ccc(Br)cc3)C(=O)C(=O)N2Cc2ccco2)o1 (stereo not drawn),"inconclusive: 89.1 µM [inhibitor, single point]",–
Cc1nc2ccccc2nc1OCC(=O)Nc1ccc(F)cc1,"inconclusive: 1.12 µM [inhibitor, full curve, poor fit]",–
CCn1nc([N+](=O)[O-])c2c(-c3nc4ccccc4o3)c(N)n(CCCOC)c2c1=O,"inconclusive: 3.98 µM [inhibitor, full curve]",–
O=C(CN1C(=O)S/C(=C\c2cccs2)C1=O)Nc1ccc(C(=O)O)c(O)c1,–,inactive: -19.1%
CCN(CC)C(=O)c1[nH]cnc1C(=O)Nc1ccc(OC)cc1,–,inactive: 28.3%
COc1cc(Cl)c(C)cc1NC(=O)c1cc2c(s1)-c1c(C)cccc1OC2,–,inactive: 2.75%
O=C1CN(C(=O)/C=C/c2ccco2)c2ccccc2N1,"inconclusive: 28.2 µM [inhibitor, full curve]",–
CCn1nnnc1SCC(=O)Nc1nnc(C(C)C)s1,"inconclusive: 89.1 µM [inhibitor, partial curve, poor fit]",–
Nc1ccc(C(=O)Nc2ccc3nc(-c4cccnc4)[nH]c3c2)cc1,active: 39.8 µM,–
CC(=O)N1N=C(c2cccc(NS(=O)(=O)c3ccc(C)cc3)c2)CC1c1ccco1 (stereo not drawn),"inconclusive: 0.282 µM [inhibitor, full curve, poor fit]",–
O=C(COC(=O)CC(c1ccccc1)c1ccccc1)Nc1cccc(F)c1,"inconclusive: 89.1 µM [inhibitor, single point]",–
CCOC(=O)N1CCC(Nc2ccc3nnc(-c4ccccc4)n3n2)CC1,"inconclusive: 0.316 µM [inhibitor, full curve, poor fit]",–
CCCCn1c(=O)c(CCC(=O)OCC(=O)NC(=O)NCCOC)nc2ccccc21,"inconclusive: 39.8 µM [inhibitor, partial curve, poor fit]",–

# Given as tab-separated lines: 6 of the compounds above.
SMILES	Potency	activity change, negative = inhibition
C=C(C)C(=O)N1CC2(CC(c3cccc(NC(=O)/C=C\C=C/C)c3)=NO2)C[C@H]1C(N)=O (stereo partly drawn)	inconclusive: 89.1 µM [inhibitor, single point]	–
O=C(O)c1ccc(N=Nc2c(O)ccc3ncccc23)cc1	active: 5.01 µM	–
ON=C1/C(=N\O)CC2(C/C1=N/O)OCCO2	inconclusive: 39.8 µM [inhibitor, single point]	–
COc1ccc(C(=O)Oc2ccc(C(c3c(C)[nH][nH]c3=O)c3c(C)[nH][nH]c3=O)cc2OC)cc1	–	inactive: -0.197%
COCCCNC(=O)c1ccc2c(c1)ncn2-c1ccc(C)cc1C	inconclusive: 89.1 µM [inhibitor, single point]	–
Cc1cc2ccccc2n1CCNC(=O)c1ccc(S(=O)(=O)N2CCOCC2)cc1	inconclusive: 79.4 µM [inhibitor, single point]	–

# (more compounds)

SMILES,Potency,"activity change, negative = inhibition"
COc1ccc(-c2noc(CSc3nnc(-c4ccncc4)n3-c3ccc(C)c(C)c3)n2)cc1,–,inactive: -22.3%
COC(=O)CSc1nc(N)c2c3c(sc2n1)C(c1ccccc1)SC(c1ccccc1)C3 (stereo not drawn),"inconclusive: 0.447 µM [inhibitor, full curve, poor fit]",–
O=C(CN1C(=O)S/C(=C\c2ccccc2)C1=O)NNC(=O)c1ccccc1O,"inconclusive: 50.1 µM [inhibitor, partial curve]",–
Cc1cc(C(=O)O)c(CSCc2cc(C(=O)O)oc2C)o1,"inconclusive: 39.8 µM [inhibitor, single point]",–
COC(=O)C1=C(C)Nc2[nH]c(=S)[nH]c(=O)c2C1c1ccc(OC)cc1 (stereo not drawn),"inconclusive: 89.1 µM [inhibitor, single point]",–
CC/C=C/C(=O)N1CC2(CC(c3cccc(NC(=O)CC(c4ccccc4)c4ccccc4)c3)=NO2)C[C@@H]1C(N)=O (stereo partly drawn),"inconclusive: 89.1 µM [inhibitor, single point]",–
O=C(COC(=O)COc1ccccc1[N+](=O)[O-])Nc1ccccc1Br,"inconclusive: 50.1 µM [inhibitor, partial curve, poor fit]",–
CCc1ccc(CN2CCSCC2)cc1,"inconclusive: 7.94 µM [inhibitor, partial curve]",–
CCCn1c(N2CCN(C(=O)/C=C/C(=O)O)CC2)nc2ccccc21,"inconclusive: 17.8 µM [inhibitor, partial curve]",–
CC(=O)c1cccc(NC(=O)c2ccc3nc(C(C)C)oc3c2)c1,–,inactive: 27.3%
CC(CCc1ccc(O)cc1)NC1C2CC3CC(C2)CC1C3 (stereo not drawn),"inconclusive: 89.1 µM [inhibitor, single point]",–
CSC1=NC2(CCCCC2)CC12C=CC(=O)C=C2,"inconclusive: 89.1 µM [inhibitor, single point]",–
CCn1c(-c2ccccc2)c(C(=O)O)c2ccccc21,"inconclusive: 31.6 µM [inhibitor, single point]",–
Cc1cc(O)ccc1C1(c2ccc(O)cc2C)OC(=O)c2ccccc21,"inconclusive: 56.2 µM [inhibitor, partial curve, poor fit]",–
COc1ccc(NC(=O)c2sc3nc[nH]c(=O)c3c2C)cc1OC,–,inactive: -2.49%
Cc1cc2nc(SCCOC(=O)Nc3cccc(Cl)c3)nc(C)c2cc1C,"inconclusive: 89.1 µM [inhibitor, single point]",–
CC(Sc1ncnc2ccccc12)C(=O)Nc1ccc2c(c1)OCO2 (stereo not drawn),–,inactive: -18.3%
C(=N\Nc1nc(N2CCOCC2)nc(N2CCOCC2)n1)/c1ccco1,"inconclusive: 15.8 µM [inhibitor, full curve]",–
Nc1cccc(-c2nc3ccc(N)cc3s2)c1,"inconclusive: 0.447 µM [inhibitor, partial curve, poor fit]",–
OCCC1CN(Cc2cccs2)CCN1Cc1ccccc1 (stereo not drawn),"inconclusive: 63.1 µM [inhibitor, partial curve, poor fit]",–
O=C(O)CN1C(=O)/C(=C\c2ccccc2OCc2ccc(F)cc2)SC1=S,"inconclusive: 28.2 µM [inhibitor, partial curve, poor fit]",–
CC(=O)N1CCc2cc(Br)cc(S(=O)(=O)CCC(=O)NCCc3ccc(Cl)cc3)c21,–,inactive: 40.7%
